{
  "source": "patent US20100234388A1",
  "about": "“SUBSTITUTED PDE5 INHIBITORS” (AUSPEX PHARMACEUTICALS, INC., priority 2006, published 2010)",
  "origin": "cited, not measured here",
  "conditions": "share of patients; ascribed to PDE6 modulation",
  "note": "Some of these results come from one statement about several compounds together.",
  "data": [
    {"compound": "CCCc1nc(C)c2c(=O)[nH]c(-c3cc(S(=O)(=O)N4CCN(CC)CC4)ccc3OCC)nn12", "note": "[vardenafil]", "values": [
      {"measurement": "patients with side effects of chromatopsia, increased sensitivity to light, and blurred vision", "value": "2-3%"}
    ]}
  ]
}
